This experiment deals with T1, endogenous AARS2 (mouse cells) (mouse (endogenous in C2C12 and in mouse primary myoblasts)) (UniProt Q14CH7).
T1 sequence: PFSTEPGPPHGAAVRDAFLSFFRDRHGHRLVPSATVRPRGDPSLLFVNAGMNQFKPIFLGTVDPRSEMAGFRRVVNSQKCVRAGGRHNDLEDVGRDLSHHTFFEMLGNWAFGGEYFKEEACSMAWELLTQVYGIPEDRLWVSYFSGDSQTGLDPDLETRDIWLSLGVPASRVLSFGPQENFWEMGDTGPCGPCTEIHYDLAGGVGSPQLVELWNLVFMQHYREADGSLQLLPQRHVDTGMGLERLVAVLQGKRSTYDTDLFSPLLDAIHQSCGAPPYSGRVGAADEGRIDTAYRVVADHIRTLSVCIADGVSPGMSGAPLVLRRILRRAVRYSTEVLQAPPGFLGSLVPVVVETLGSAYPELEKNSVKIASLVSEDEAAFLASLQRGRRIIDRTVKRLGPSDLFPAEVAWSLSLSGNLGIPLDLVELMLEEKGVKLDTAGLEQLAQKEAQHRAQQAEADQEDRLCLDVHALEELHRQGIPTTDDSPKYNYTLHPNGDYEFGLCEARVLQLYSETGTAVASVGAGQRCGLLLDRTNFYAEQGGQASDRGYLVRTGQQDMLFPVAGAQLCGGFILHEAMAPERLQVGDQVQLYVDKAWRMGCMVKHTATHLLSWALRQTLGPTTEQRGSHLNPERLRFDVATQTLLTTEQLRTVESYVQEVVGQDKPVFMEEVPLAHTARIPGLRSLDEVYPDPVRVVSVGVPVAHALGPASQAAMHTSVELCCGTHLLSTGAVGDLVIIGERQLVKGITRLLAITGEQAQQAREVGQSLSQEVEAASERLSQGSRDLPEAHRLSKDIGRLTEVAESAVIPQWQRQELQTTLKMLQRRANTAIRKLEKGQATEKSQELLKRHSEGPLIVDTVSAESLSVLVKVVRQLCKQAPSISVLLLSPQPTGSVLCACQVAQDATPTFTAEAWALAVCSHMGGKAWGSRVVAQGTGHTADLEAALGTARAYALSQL
In words: co-IP; endogenous proteins in mouse primary myoblasts (Supplementary Fig. S1k).

Protein sequences, listed by entry. Tags and fused reporters are not part of them.
UniProt Q91YE3: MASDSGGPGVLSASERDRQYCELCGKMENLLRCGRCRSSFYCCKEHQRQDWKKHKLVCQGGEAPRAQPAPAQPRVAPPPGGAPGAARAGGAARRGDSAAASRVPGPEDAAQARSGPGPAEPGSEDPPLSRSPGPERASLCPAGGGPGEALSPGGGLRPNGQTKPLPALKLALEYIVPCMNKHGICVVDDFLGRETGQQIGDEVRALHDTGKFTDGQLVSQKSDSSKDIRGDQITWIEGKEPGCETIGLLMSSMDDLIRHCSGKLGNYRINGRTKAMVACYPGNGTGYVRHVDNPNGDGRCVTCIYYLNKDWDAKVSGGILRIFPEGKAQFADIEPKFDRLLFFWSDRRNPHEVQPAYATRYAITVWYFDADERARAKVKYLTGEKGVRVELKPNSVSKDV
UniProt P40338: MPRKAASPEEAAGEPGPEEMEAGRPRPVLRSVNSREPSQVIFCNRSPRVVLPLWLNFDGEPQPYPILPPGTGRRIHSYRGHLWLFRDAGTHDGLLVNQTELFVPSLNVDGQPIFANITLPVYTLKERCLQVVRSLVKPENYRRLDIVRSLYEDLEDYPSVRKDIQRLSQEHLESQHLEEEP

These are yes or no findings as the source states them, for the method shown. Binding seen in cells or lysates may run through a third protein. Some entries that bind do so weakly or less than the wild type.

“endogenous PHD2 (from UniProt Q91YE3 1-400) (enzyme)”: the binding result is “binds”.

Take “endogenous VHL (from UniProt P40338 1-181)”: the binding entry is reported as “binds”.

Values taken from article PMC10770133.
